Where a chain is given by its changes, count along the chain named. These are yes or no findings as the source states them, for the method shown. Some results given as binding are weak or reduced against the parent protein; the word gives no strength. For part of these data: Where a sequence is shown, tags or fusion partners need not be part of it.
T1: 4Ig-B7H3 (human, UniProt Q5ZPR3 27-461, limits assumed)
T1 construct: also called 4Ig-B73H3
T1 sequence (looked up): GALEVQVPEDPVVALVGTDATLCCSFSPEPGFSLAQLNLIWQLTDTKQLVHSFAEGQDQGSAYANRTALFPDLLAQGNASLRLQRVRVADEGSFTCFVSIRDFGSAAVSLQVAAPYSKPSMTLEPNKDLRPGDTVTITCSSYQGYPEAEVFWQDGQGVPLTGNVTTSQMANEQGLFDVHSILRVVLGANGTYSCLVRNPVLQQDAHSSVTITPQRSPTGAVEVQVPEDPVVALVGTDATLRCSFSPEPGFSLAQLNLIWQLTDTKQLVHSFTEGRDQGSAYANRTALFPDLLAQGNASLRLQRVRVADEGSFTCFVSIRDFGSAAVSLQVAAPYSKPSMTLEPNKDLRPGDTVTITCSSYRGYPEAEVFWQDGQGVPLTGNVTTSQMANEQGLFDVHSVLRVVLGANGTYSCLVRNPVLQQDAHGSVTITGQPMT

T2: 2Ig-B7H3 without Fc fusion (human, UniProt Q5ZPR3-2 29-245, limits assumed)
T2 construct: also called 2IgB7H3 (R&D)
T2 sequence (looked up): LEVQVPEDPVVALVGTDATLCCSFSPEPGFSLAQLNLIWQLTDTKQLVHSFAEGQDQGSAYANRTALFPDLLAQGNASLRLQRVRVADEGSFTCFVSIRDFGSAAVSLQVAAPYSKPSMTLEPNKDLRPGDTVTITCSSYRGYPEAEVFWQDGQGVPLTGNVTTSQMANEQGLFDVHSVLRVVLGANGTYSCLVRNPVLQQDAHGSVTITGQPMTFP

B1: hu8H9-H1L2 IgG1 (antibody, V domains shown)
VH: QVQLVQSGAEVKKPGASVKLSCKASGYTFTNYDINWVRQAPGQGLEWIGWIFPGDGSTQYNEKFKGKATLTTDTSTSTAYMELSSLRSEDTAVYFCARQTTATWFAYWGQGTLVTVSS
VL: EIVMTQSPATLSVSPGERVTLSCRASQSISDYLHWYQQKSHESPRLLIKYASQSISGIPARFSGSGSGTEFTLTINSVEPEDVGVYYCQNGHSFPLTFGQGTKLEIKR
B2: hu8H9-H2L2 IgG1 (antibody, V domains shown)
VH: B1 VH with K12V, S85R, R87T
VL: B1 VL
B3: hu8H9-H1L1 IgG1 (antibody, V domains shown)
VH: B1 VH
VL: B1 VL with S40P, H41G, E42Q, S43A, N76S, E79Q
B4: hu8H9-H2L1 IgG1 (antibody, V domains shown)
VH: B1 VH with K12V, S85R, R87T
VL: B1 VL with S40P, H41G, E42Q, S43A, N76S, E79Q
B5: hu8H9 clone S3.3 scFv (scFv)
scFv: QVQLVQSGAEVVKPGASVKLSCKTSGYTFTNYDINWVRQRPGQGLEWIGWIFPGDGSTQYNEKFKGKATLTTDTSTSTAYMELSSLRSEDTAVYFCARQTTATWFAYWGQGTLVTVSSGGGGSGGGGSGGGGSEIVMTQSPATLSVSPGERVTLSCRASQSISDYLYWYQQKSHESPRLLIKYASQSISGIPARFSGSGSGSEFTLTINSVEPEDVGVYYCQNGHSFPLTFGQGTKLELKR
notes: also called Sort3; not shown: FLAG and His tags

Target: T1, 4Ig-B7H3
Test: ELISA titled 'B7H3 ELISA'; legend: 4Ig-B7H3 (the ELISA method coats B7H3-mFc); IgG serially diluted
Experimental: (§1) B7H3-mFc (100 ng/well) or 2IgB7H3 (R&D, Minneapolis, Minn.) (25 ng/well) were coated on polyvinyl microtiter plates in PBS overnight. Plates were then blocked with 0.5% BSA in PBS at 150 μl per well for 1 h at room temperature. Antibodies were added in triplicates with serial dilution in 0.5% BSA. Following incubation for 1 h at room temperature and washing with PBS, HRP-mouse anti-human Fc antibody, HRP-streptavidin, or HRP-mouse anti-Flag antibody was added. After incubation for 1 h at room temperature and further washing, the color was developed and quantified using an ELISA plate reader at 490 nm.

Row | binding | Binder
1 | binds | B1
2 | binds | B2
3 | binds | B3
4 | binds | B4

Target: T2, 2Ig-B7H3 without Fc fusion
Test: ELISA, right panel '2IgB7H3', scFv serially diluted 0.01-10 µg/ml
Experimental: as §1

Row | binding | Binder
5 | binds | B5

Target: T1, 4Ig-B7H3
Test: SPR

Row | binding | Binder
6 | binds | B1
7 | binds | B2
8 | binds | B3
9 | binds | B4

Source: US20170240637A1 (Memorial Sloan Kettering, published 2017)
